Assay results: PubChem BioAssay AID493014 (National Center for Advancing Translational Sciences (NCATS), 2011)
Several values for one entry are separate records, joined by “and”; a condition that tells them apart may be missing. Equal values may be shown once. The list shows a part of the results. These are further read-outs of the screen, such as a control signal, another cell line or another target. No call is given for them. The list favours compounds with an active or inconclusive main result. The note in brackets gives the kind of curve behind each potency; many fits are weak.

Assay: qHTS Assay to Find Inhibitors of Chronic Active B-Cell Receptor Signaling
Conditions: ABC-DLBCL IkBa-CBG/CBR reporter, luminescence ratio (green luciferase fused to IkBa over red control in TMD8 lymphoma cells), 4 h
Procedure, shortened: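 Doxycycline induced both beetle luciferases in TMD8 lymphoma cells; IKK-driven degradation limits the IkappaBalpha-fused green signal, while red luminescence normalises for cell number and nonspecific effects. Compounds tested up to 46 uM, 4 hrs.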

[1] = measured here: CBR red luminescence, cell number
[2] = measured here: IkBa-CBG green luminescence

Compound | AC50 [1] | AC50 [2]
COc1ccc2c(c1)OCC1=C2CCC2(C)C(=O)CC=C12 (configuration not stated) | 2.06 µM [falling, full curve, poor fit] | –
Cc1ccc(NC(=O)CNC(=O)c2ccc(C)s2)nc1 | 29.1 µM [falling, single point] | –
O=C1/C(=C\c2ccccc2)CCc2c1[nH]c1ccccc21 | 18.4 µM [falling, single point] | –
Cc1ccc(C)c(N(C(=O)Cn2nnc3ccccc32)C(C(=O)NC(C)(C)C)c2ccsc2)c1 (configuration not stated) | 5.62 µM [rising, single point] | –
N#Cc1ccc(-c2csc(-c3ccno3)n2)cc1 | 8.91 µM [rising, partial curve, poor fit] | –
C1CCC(C(CC2CCCCN2)C2CCCCC2)CC1 (configuration not stated) | 29.1 µM [falling, single point] and 10 µM [falling, partial curve, poor fit] | –
FC(F)(F)Sc1ccc(NC(=S)NCc2ccccc2)cc1 | 35.5 µM [falling, single point] | 15.8 µM [rising, partial curve, poor fit]
O=C(CCNc1ccc(F)cc1)c1ccco1 | 18.4 µM [falling, single point] | 32.6 µM [rising, partial curve, poor fit]
Cn1c(=O)[nH]c(=O)c2c1nc(N1CCN(CCO)CC1)n2CCSc1nc2ccccc2s1 | 4.61 µM [falling, full curve, poor fit] | –
CCc1sc(C(=O)N2CCN(c3ncccn3)CC2)cc1Br | 17.8 µM [rising, single point] | –
Cc1nnc(SCCc2ccccc2)[nH]c1=O | 20 µM [falling, single point] | –
O=C(CSc1nc2ccccc2[nH]1)c1cccs1 | 8.91 µM [falling, partial curve] | –
O=C(CCc1ccccc1)Nc1ccccc1C(=O)NCc1ccco1 | 29.1 µM [falling, partial curve, poor fit] | –
O=C(O)/C=C\C(=O)Nc1ccc(N2CCN(c3ccc(Cl)cc3)CC2)cc1 | 35.5 µM [rising, single point] | –
O=S(=O)(c1cccs1)N1CCN(CCc2ccccc2)CC1 | 5.01 µM [rising, single point] | –
BrC(=C\c1ccccc1)/C=N/N1CCN(c2ccccc2)CC1 | 22.4 µM [falling, single point] | 22.4 µM [falling, single point]
COc1cc(C(=O)NNC(=O)c2ccc(NC(=O)C(C)(C)C)cc2)cc(OC)c1OC | 14.1 µM [rising, single point] | –
Cc1cccc(N=C2NN=C(c3c[nH]c4ccccc34)CS2)c1 | 29.1 µM [falling, single point] | –
COc1ccc(CCNC(=O)COC(=O)c2ccc(C)s2)cc1 | 29.1 µM [rising, single point] | –
Cc1cc(-c2ccc(C(C)C)c(S(=O)(=O)Nc3cc(C)on3)c2)on1 | 8.91 µM [rising, partial curve] | –
O=C(COC(=O)c1ccccc1O)Nc1cccc2ccccc12 | 0.411 µM [falling, full curve] | –

Pulled by structure from above, three records:
Compound | AC50 [1] | AC50 [2]
Cc1nnc(SCCc2ccccc2)[nH]c1=O | 20 µM [falling, single point] | –
Cc1cc(-c2ccc(C(C)C)c(S(=O)(=O)Nc3cc(C)on3)c2)on1 | 8.91 µM [rising, partial curve] | –
O=C(CCc1ccccc1)Nc1ccccc1C(=O)NCc1ccco1 | 29.1 µM [falling, partial curve, poor fit] | –

Continued.

Compound | AC50 [1] | AC50 [2]
COC(=O)c1ccccc1NC(=O)Nc1cccnc1 | 10 µM [falling, partial curve, poor fit] | –
COc1cc(NC(=O)CNC(c2ccccc2)c2ccccc2)cc(OC)c1OC | 35.5 µM [falling, single point] | –
Cc1ccc(C(=O)NCCc2nnc3ccc(SCC(=O)Nc4ccc(C)cc4C)nn23)cc1 | 11.6 µM [rising, partial curve, poor fit] | –
CCn1cc(CN2CCc3c([nH]c4ccccc34)C2c2ccc(F)c(OC)c2)c(C)n1 (configuration not stated) | 35.5 µM [falling, single point] | –
O=C(O)c1ccc(/C=N/NC(=S)NC2CCCCC2)cc1 | 35.5 µM [falling, single point] | –
CCOC(=O)C1CCN(C(=O)Cn2cnc3sc(C)c(S(=O)(=O)N4CCOCC4)c3c2=O)CC1 | 3.16 µM [falling, single point] | –
COc1ccccc1OCCn1cc(C(=O)c2ccco2)c2ccccc21 | 10 µM [falling, partial curve] | –
Cc1cccc(-n2ncc3c(NCc4ccccn4)ncnc32)c1 | 7.94 µM [falling, partial curve, poor fit] | –
COc1ccc(OC)c(NC(=O)CSc2nnc(C3CCCCC3)n2N)c1 | 1.64 µM [falling, full curve, poor fit] | –
CCc1ccc(-c2nc(SCC(=O)c3c(N)n(C4CC4)c(=O)[nH]c3=O)n[nH]2)cc1 | 6.51 µM [rising, single point] | –
O=C(COC(=O)c1ccc(O)cc1)Nc1cccc(S(=O)(=O)N2CCCCC2)c1 | 5.01 µM [falling, partial curve] | –
CCOC(=O)C1CCN(C(=O)c2ccc3c(=O)n4nc(Nc5ccccc5)sc4nc3c2)CC1 | 12.6 µM [falling, partial curve, poor fit] | –
COc1cc(C(c2c(C)[nH][nH]c2=O)c2c(C)[nH][nH]c2=O)ccc1OS(=O)(=O)c1ccccc1 | 6.51 µM [rising, single point] | –
O=C1c2cc(Br)ccc2OC2C=CC=CC12 (configuration not stated) | 18.4 µM [rising, partial curve, poor fit] | –
O=C(COC(=O)Cc1ccsc1)Nc1ccccc1Cl | 29.1 µM [rising, single point] | –
COc1ccc(C(=O)c2cc([N+](=O)[O-])ccc2N2CCCC2)cc1 | – | 18.4 µM [falling, partial curve, poor fit]
O=C(Nc1cc(Cl)ccc1O)c1snnc1-c1ccccc1 | 17.8 µM [falling, partial curve] | –
Cc1nnnn1/C(=C\c1ccccc1)C(=O)OCC(=O)NC1CCCCC1 | 2.06 µM [falling, full curve] | –
CCCNC(=O)c1cc2ccccc2c(=O)o1 | 23.1 µM [falling, single point] | –
COc1ccc(Nc2nc(-c3cccnc3)nc3ccccc23)cn1 | 22.4 µM [falling, partial curve, poor fit] | –
C=CCn1c(C)nc2c(sc3nc4c(cc32)COC(C)(C)C4)c1=O | 11.2 µM [falling, partial curve, poor fit] | –

Compound | AC50 [1] | AC50 [2]
COc1ccc(NC(=O)c2cc(-c3cc(C)cc(C)c3O)n[nH]2)cc1Cl | 20.6 µM [falling, partial curve] | –
COc1cc(/C=N/Nc2nc3ccccc3[nH]2)ccc1O | 16.4 µM [falling, single point] | –
Clc1ccc(-n2nnc(-c3cccnc3Cl)n2)cn1 | 1.58 µM [rising, partial curve] | –
O=C1CSc2ccc(S(=O)(=O)N3CCN(c4ccccc4F)CC3)cc2N1 | 35.5 µM [falling, single point] | –
COc1cc(OC)c2ccc(=O)oc2c1C(CC(=O)N1CCN(c2ccccc2)CC1)c1ccc2c(c1)OCO2 (configuration not stated) | 2.24 µM [falling, partial curve] | –
COc1cc(/C=C/C(=O)OCC(=O)N2c3ccccc3NC(=O)C2(C)C)cc(OC)c1OC | 2.31 µM [rising, partial curve, poor fit] | –
Cc1cc(OC(C)C(=O)NC2CC(C)(C)NC(C)(C)C2)c2c(C)cc(=O)oc2c1 (configuration not stated) | 7.08 µM [rising, full curve] | –
C#CCOCCOCCOCCNc1nc(N2CCN(C(=O)CCCCCCCCCCNC(=O)Cn3cc(CCCCCN)nn3)CC2)nc(N2CCN(C(=O)CCCCCCCCCCNC(=O)[C@@H]([C@H](C)O)n3cc(C)nn3)CC2)n1 | 18.4 µM [rising, single point] | –
Cc1cccc(-n2ncc3c(Nc4c(C)cc(C)cc4C)ncnc32)c1 | 2.82 µM [rising, full curve, poor fit] | 8.91 µM [falling, partial curve, poor fit]
Cc1ccc(C2NC(=O)c3c(sc(C)c3C)N2)c(O)c1 (configuration not stated) | 29.1 µM [falling, single point] | –
COc1ccccc1NC(=S)NC(=O)C(C)C | 10 µM [falling, partial curve, poor fit] | –
O=C(Nc1ccc(F)cc1)c1ccc2nc[nH]c2c1 | 11.2 µM [falling, partial curve] | –
CCn1c(SCC(=O)c2ccc3c(c2)OCCO3)nnc1-c1ccco1 | 1.64 µM [rising, partial curve] | –
CS(=O)(=O)c1cccc(C(=O)NCc2ccc(F)cc2)c1 | 29.1 µM [rising, single point] | –
COc1ccc2oc(C(=O)NCC3CCCO3)c(C)c2c1 (configuration not stated) | 10 µM [falling, partial curve, poor fit] | –
CCN(CC)c1cc2nonc2c2nonc12 | 2.51 µM [rising, full curve, poor fit] | –
CCN(CC)c1ccc(NC(=O)CC2Oc3ccccc3NC2=O)c(C)c1 (configuration not stated) | 14.6 µM [falling, partial curve, poor fit] | –
COc1ccc(NC(=O)/C(Cl)=C(/Cl)S(=O)Cc2ccccc2)cn1 (configuration not stated) | 2.59 µM [falling, full curve] | 2.91 µM [rising, full curve, poor fit]
CC1CCCCC1NC(=O)Cn1cnc2ccccc2c1=O (configuration not stated) | 3.16 µM [rising, single point] | –
COc1ccc(OC)c(NC(=O)N2CCCC(C(=O)c3ccccc3OC)C2)c1 (configuration not stated) | 6.31 µM [rising, single point] | –
